# Some of the results follow.
# Sequences of proteins named here, by UniProt entry; tags and fusion partners are left off.
# UniProt Q0JBA9, entry or part of it: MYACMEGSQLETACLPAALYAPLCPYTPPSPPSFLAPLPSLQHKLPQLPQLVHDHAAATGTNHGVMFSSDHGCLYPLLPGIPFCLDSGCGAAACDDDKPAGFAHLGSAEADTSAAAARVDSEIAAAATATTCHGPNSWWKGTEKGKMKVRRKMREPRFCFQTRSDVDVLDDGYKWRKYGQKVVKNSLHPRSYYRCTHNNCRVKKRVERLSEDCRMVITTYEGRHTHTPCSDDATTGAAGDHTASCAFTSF
# Biological target: OsWRKY34 (Oryza sativa, UniProt Q0JBA9 1-250)
# Experiment: protein-binding microarray (RPBM); PBS, 2% BSA, 51.3 ng/ul salmon testes DNA, 50 uM zinc acetate, 200 nM TF, 25 C, 1 h; high values mean tight binding
# Conditions: protein: recombinant; tags: N-terminal polyhistidine and DsRed monomer fusion (pET32a); label: CyDye5-dUTP incorporated in the synthesized complementary strand; 3' TTTTT single-stranded linker to array surface; dsDNA, one strand shown
# Method in brief: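 For the binding signal, per-feature fluorescence intensity was read in arbitrary units on an Axon 4000B scanner. Before scanning, a 2% BSA-blocked custom Agilent array made double-stranded with Cy5-dUTP was washed after 1 h at 25 °C with 200 nM protein and 50 µM zinc acetate. The proteins were Ni–NTA-purified transcription factors with N-terminal polyhistidine and DsRed fusions, expressed in E. coli BL21-CodonPlus.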
row,Sequence,binding signal
1,TGCACAAAGGTTATGCGATATCGACGGTATATTTCCACAACGGAGTCACCTAGTGCAG,9520 fluorescence intensity (a.u.)
2,CCACACAATCGCAATATCTCTAACACTCTCATATATTTCTCGGAGTCACCTAGTGCAG,9030 fluorescence intensity (a.u.)
3,CACACCACAGCGCGCGCCCGCCCGCCAGCCATCCCGCTGCCGGAGTCACCTAGTGCAG,8510 fluorescence intensity (a.u.)
4,ATTGTTCGTTTTATATGAAATTTTTTATAATTAGTATTTTCGGAGTCACCTAGTGCAG,8410 fluorescence intensity (a.u.)
5,ATCTCGTCTATGTATCTTCTTATTTTCTCTCCTCTCAGACCGGAGTCACCTAGTGCAG,8100 fluorescence intensity (a.u.)
6,CTTCCATTCTTCTCTCCCTTAGGTGCTAGGCGAACAAAATCGGAGTCACCTAGTGCAG,8460 fluorescence intensity (a.u.)
7,AAGTAGCCCTTCGACCACGCAATGCCCGACCTCGATCATCCGGAGTCACCTAGTGCAG,8300 fluorescence intensity (a.u.)
8,CTTTCTCTAGCTAGCTATCTAGTGGATCTCTTTCCCATCTCGGAGTCACCTAGTGCAG,9140 fluorescence intensity (a.u.)
9,TTCCTATAGTGGGGATGGAGGAATAGGGAATATAAGTGATCGGAGTCACCTAGTGCAG,8380 fluorescence intensity (a.u.)
10,GTACTGGCACCTATATAGCCACCTTGCTCAAGCATACCAACGGAGTCACCTAGTGCAG,8220 fluorescence intensity (a.u.)
11,AGCAGGCCTTCCATCTTCCACTGCACTTGCACTACATATACGGAGTCACCTAGTGCAG,11000 fluorescence intensity (a.u.)
12,GCTTACCATGTAGCTTTGTATCCCGCGACTCTTATACAAGCGGAGTCACCTAGTGCAG,9500 fluorescence intensity (a.u.)
13,TATACCCTCGCATGATCCTAGCCGCCGGTTTCTCATCCAACGGAGTCACCTAGTGCAG,10900 fluorescence intensity (a.u.)
14,TGAGTGAATATTTAACTGGCCATGCTGATCGATCGATATTCGGAGTCACCTAGTGCAG,8170 fluorescence intensity (a.u.)
15,TCAACTCTTCGTGGATGCTAATTAACCGGTGTTACTACTCCGGAGTCACCTAGTGCAG,9070 fluorescence intensity (a.u.)
16,TTCATGCTCATTCGCGTACCTATTGCCAACCGGACAATGTCGGAGTCACCTAGTGCAG,10200 fluorescence intensity (a.u.)
17,CCTCCACCTCCCACGCCGGCCGCAGCCGCGCGCTGCCATCCGGAGTCACCTAGTGCAG,8410 fluorescence intensity (a.u.)
18,TTCCCGCACGCGCACATGCTGCTCTAAAAACTCTTCCGCTCGGAGTCACCTAGTGCAG,8780 fluorescence intensity (a.u.)
19,CTAACCGTCGCCTTTACCGATTATCCGGTTCTTTACTAACCGGAGTCACCTAGTGCAG,8150 fluorescence intensity (a.u.)
20,GGCATCAGATGCGGTTGACTTTAGTTAGATCACTCTGCACCGGAGTCACCTAGTGCAG,9800 fluorescence intensity (a.u.)
21,ACACCGCCGCGCCGCATTGGTTTCATCTCCGCTCTCATCTCGGAGTCACCTAGTGCAG,8570 fluorescence intensity (a.u.)

# Shown bar-delimited: part of the list above.
row | Sequence | binding signal
17 | CCTCCACCTCCCACGCCGGCCGCAGCCGCGCGCTGCCATCCGGAGTCACCTAGTGCAG | 8410 fluorescence intensity (a.u.)
18 | TTCCCGCACGCGCACATGCTGCTCTAAAAACTCTTCCGCTCGGAGTCACCTAGTGCAG | 8780 fluorescence intensity (a.u.)
19 | CTAACCGTCGCCTTTACCGATTATCCGGTTCTTTACTAACCGGAGTCACCTAGTGCAG | 8150 fluorescence intensity (a.u.)

# (cont.)

row,Sequence,binding signal
1,GTTTTCAAAATATATCTTTGACTATGTTTTTTCTATTATACGGAGTCACCTAGTGCAG,9360 fluorescence intensity (a.u.)
2,ACACAATCCCCAACTAAATTTGTTGTATTTTTTTCTCTGACGGAGTCACCTAGTGCAG,8310 fluorescence intensity (a.u.)
3,ACTCGTTGACCAAAGGGAGTGGAGTTTGAAAGGGTGGGAGCGGAGTCACCTAGTGCAG,14600 fluorescence intensity (a.u.)
4,TGCTTCTTATTAAGAAATATTGTGCAGGTTTTTCGTCTTTCGGAGTCACCTAGTGCAG,9660 fluorescence intensity (a.u.)
5,GGTGTGGTGGTGGAGTCGTAAATGCATGACTAAGTGTTATCGGAGTCACCTAGTGCAG,10900 fluorescence intensity (a.u.)
6,CCCCTCTCTCTCTATCTCTCTCTCGCCTTTTGCACCATTACGGAGTCACCTAGTGCAG,9480 fluorescence intensity (a.u.)
7,ATGACAGCCTTGGTCCATTGACATTTCAGCCATTATATATCGGAGTCACCTAGTGCAG,8340 fluorescence intensity (a.u.)
8,TCCTATGACTCGGTTTACTTTGATGATTACATATTTTCCTCGGAGTCACCTAGTGCAG,9530 fluorescence intensity (a.u.)
9,TTGTTTCTGGTTTCAATACAAACTTTTTTCCTCTAAACTTCGGAGTCACCTAGTGCAG,8340 fluorescence intensity (a.u.)
10,CCCCTGGTCGAATCTCCACTCTCGGGGAGGGGTCTCCACTCGGAGTCACCTAGTGCAG,9630 fluorescence intensity (a.u.)
11,GGGAGAACGGCGCGTTCTGGGCCCCACCCTGCAGCGACTCCGGAGTCACCTAGTGCAG,8340 fluorescence intensity (a.u.)
12,GCCGCACAGCTTGCCTTCCTCGTCGTCTCGTCTCCTTCAGCGGAGTCACCTAGTGCAG,8730 fluorescence intensity (a.u.)
13,ACTTTTTTCTCCTGGGTTAGTATCGTGTTAAAGTTTTTTTCGGAGTCACCTAGTGCAG,10700 fluorescence intensity (a.u.)
14,TGGACTTCCTCATCACCAAGCCGCAGCCGCCACCGCCGCTCGGAGTCACCTAGTGCAG,8040 fluorescence intensity (a.u.)
15,TGTCATATTTCTCGCATCGATCCTCAACATATGCATGACACGGAGTCACCTAGTGCAG,9580 fluorescence intensity (a.u.)
16,GTTTTATTTCGGATTATTTTTTTAATCATTTTACTTTGTACGGAGTCACCTAGTGCAG,9740 fluorescence intensity (a.u.)
17,TGTCATACACACATTACGTCTTGGAGTCCGTGCTGCAGCTCGGAGTCACCTAGTGCAG,11500 fluorescence intensity (a.u.)
18,GCCGGGGTGACGTCACCATCATCACTCCATTATTGCTGCGCGGAGTCACCTAGTGCAG,9750 fluorescence intensity (a.u.)
19,CTGTTATATGGCCCTGCTACTGCTCTTATTGCTGCTATTACGGAGTCACCTAGTGCAG,9280 fluorescence intensity (a.u.)
20,AATTAACGGTCTTAGATAGTTTTACCTTGGTTATCTTCTCCGGAGTCACCTAGTGCAG,8210 fluorescence intensity (a.u.)
21,AAGAGATTGTTAAAATGACTTTATTACATTATTTAATAACCGGAGTCACCTAGTGCAG,9950 fluorescence intensity (a.u.)
